# Assay results from EP2261259B1, “Immunoassay for N-(3-chlorophenyl)piperazine-based anti-depressants” (Randox Laboratories Ltd., priority 2009, dated 2010).
# Tested on: antibody of the invention
# Assay: Competitive ELISA (antibody-coated microtitre plate, hapten-HRP conjugate, TMB, absorbance at 450 nm)
# Type: binding, sheep
# Details: standard concentration which produces 50% B/B0
# Protocol: The process of developing an immunoassay is well known to the person skilled in the art. Briefly, for a competitive immunoassay in which the target analyte is a non-immunogenic molecule commonly referred to as a hapten, the following process is conducted: antibodies are produced by immunising an animal, preferably a mammalian animal, by repeated administration of an immunogen. The serum from the immunised animal is collected when the antibody titre is sufficiently high. A conjugate is added to a sample containing the target analyte and the raised antibodies, and the conjugate and analyte compete for binding to the antibodies. The process may comprise fixing said serum antibodies to a backing substrate such as a polystyrene solid support or a biochip. The antibodies can be polyclonal or monoclonal. The signal emitted in the immunoassay is proportionate to the amount of conjugate bound to the antibodies which in turn is inversely proportionate to the analyte concentration. The signal can be detected or quantified by comparison with a calibrator.
# Trazodone and N-(3-chlorophenyl)piperazine were coupled by way of a crosslinker to bovine thyroglobulin (BTG). […] The absorbancies were read at 450nm with an ELISA microplate reader (BIO-TEK Instruments, EL340) and the means calculated. Antibody specificity and sensitivity were then determined […]
compound,measurement,value
"O=c1n(CCCN2CCN(c3cccc(Cl)c3)CC2)nc2ccccn12 [Trazodone, 2-{3-[4-(3-chlorophenyl)-1-piperazinyl]propyl}-[1,2,4]triazolo[4,3-a]pyridin-3(2H)-one]",IC50,0.532 ng/mL
